Assay results reported in patent US20260176275A1, “VINYLPHOSPHONIC ACID-MODIFIED MRNA CAP ANALOG, METHOD FOR PREPARING SAME, AND USE THEREOF” (Jiangsu Synthgene Biotechnology Co., Ltd., priority 2022, published 2026).
The name of at least one read-out is uncertain.

Test system: 293T cells
Test: mRNA translation efficiency: eGFP mRNA capped with the analogs transfected into 293T cells, GFP fluorescence
Type: cell-based
Conditions: eGFP mRNA in 293T cells, 24 h after transfection
Description: Test method: In-vitro transcription was initiated with the cap analogs of Examples 1-7, compounds 10-13, 16, 17, 25, 31 and 34, and Comparative Example 1 by using an eGFP coding sequence as a DNA template. The different mRNA products obtained were then transfected into 293T cells. The 293T cells were plated (onto a 24-well plate) at (0.5-1)×10^5 cells/well. During the transfection, in general, the cell density was preferably 60%-80%; […] was transfected into each well, and the Lipofectamine MessengerMAX Transfection Reagent (Invitrogen) was selected as the transfection reagent and used according to its usage instructions. The transfected cells were placed in an incubator at 37° C. with CO2. After transfection for 4-6 h, the medium was replaced with a fresh complete medium. After incubation in the incubator at 37° C. with CO2 for 24 h, the fluorescence intensity of GFPs in the cells was observed through a fluorescence microscope, and the fluorescence intensity ratios of Examples 1-7 and compounds 10-13, 16, 17, 25, 31 and 34 relative to Comparative Example 1 were calculated based on the fluorescence intensities.

Compound	Cell fluorescence relative intensity (relative to Comparative Example 1)
COC1C(OP(=O)(O)OC[C@H]2O[C@@H](n3cnc4c(=O)[nH]c(N)nc43)C(O)C2O)[C@@H](COP(=O)(O)OP(=O)(O)OP(=O)(O)/C=C/[C@H]2O[C@@H](n3c[n+](C)c4c(=O)[nH]c(N)nc43)C(O)C2CNC(C)=O)O[C@H]1n1cnc2c(N)ncnc21 (some centres unmarked) [Compound 12]	3.06
COC1C(OP(=O)(O)OC[C@H]2O[C@@H](n3ccc(=O)[nH]c3=O)C(O)C2O)[C@@H](COP(=O)(O)OP(=O)(O)OP(=O)(O)/C=C/[C@H]2O[C@@H](n3c[n+](C)c4c(=O)[nH]c(N)nc43)C(O)C2CNC(C)=O)O[C@H]1n1cnc2c(N)ncnc21 (some centres unmarked) [Compound 17]	2.92
COC1C(OP(=O)(O)OC[C@H]2O[C@@H](n3cnc4c(=O)[nH]c(N)nc43)C(O)C2O)[C@@H](/C=C\P(=O)(O)OP(=O)(O)OP(=O)(O)OC[C@H]2O[C@@H](n3c[n+](C)c4c(=O)[nH]c(N)nc43)C(O)C2CNC(C)=O)O[C@H]1n1cnc2c(N)ncnc21 (some centres unmarked) [Compound 25]	2.85
COC1C(OP(=O)(O)OC[C@H]2O[C@@H](n3cnc4c(=O)[nH]c(N)nc43)C(O)C2O)[C@@H](COP(=O)(O)OP(=O)(O)OP(=O)(O)/C=C/[C@H]2O[C@@H](n3c[n+](C)c4c(=O)[nH]c(N)nc43)C(O)C2CN(C)C(C)=O)O[C@H]1n1cnc2c(N)ncnc21 (some centres unmarked) [Compound 31]	2.82
CCCC(=O)NCC1C(O)[C@H](n2c[n+](C)c3c(=O)[nH]c(N)nc32)O[C@@H]1/C=C/P(=O)(O)OP(=O)(O)OP(=O)(O)OC[C@H]1O[C@@H](n2cnc3c(N)ncnc32)C(OC)C1OP(=O)(O)OC[C@H]1O[C@@H](n2cnc3c(=O)[nH]c(N)nc32)C(O)C1O (some centres unmarked) [Compound 34]	2.84
